Test results reported in the supplement of paper PMC10331698.
± gives the standard deviation of the averaged measurements. Most entries show no effect beyond the scatter of the controls.

Columns and labels:
Test in all cases: level (log10 ratio to DMSO vehicle control); higher = higher biomarker level / cell amount than vehicle control
[1] = compound: C=C(C)C(=O)OCC(F)(F)C(F)(F)C(F)(F)F [2,2,3,3,4,4,4-Heptafluorobutyl methacrylate]; conditions: 2200 nM; in DMSO
Method: (§1)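 BioMAP Diversity Plus panel of 12 human primary cell co-culture systems (3C, 4H, LPS, SAg, BT, BF4T, BE3C, CASM3C, HDF3CGF, KF3CT, MyoF, Mphg). Compounds were added 1 h before stimulation and left for 24 h (MyoF 48 h; BT 72 h for soluble read-outs or 6 d for IgG). Biomarkers were read by ELISA, cytotoxicity by SRB, PBMC viability and proliferation by Alamar Blue. Each well value was divided by the mean of 8 DMSO control wells on the same plate and log10 transformed; duplicate blinded samples were tested at 4 concentrations.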

[2] = compound: C=CC(=O)OCC(F)(F)C(F)(F)C(F)(F)C(F)(F)COC(=O)C=C [1H,1H,6H,6H-Perfluorohexane-1,6-diol diacrylate]; conditions: 2200 nM; in DMSO
Method: as §1

[3] = compound: FC(F)(F)C(F)(F)C(F)(F)C(F)(F)C(F)(F)C(F)(F)C(F)(F)CCI [1-Iodo-1H,1H,2H,2H-perfluorononane]; conditions: in DMSO
Method: as §1

[4] = compound: FC(F)(F)C(F)(F)C(F)(F)C(F)(F)C(F)(F)C(F)(F)C(F)(F)I [1-Iodopentadecafluoroheptane]; conditions: in DMSO
Method: as §1

[5] = compound: FC(F)C(F)(F)COCC1CO1 [((2,2,3,3-Tetrafluoropropoxy)methyl)oxirane]; conditions: 2200 nM; in DMSO
Method: as §1

Perfluorooctanamide = compound: NC(=O)C(F)(F)C(F)(F)C(F)(F)C(F)(F)C(F)(F)C(F)(F)C(F)(F)F [Perfluorooctanamide]; conditions: 2200 nM; in DMSO
Method: as §1

Perfluoroundecanoic acid = compound: O=C(O)C(F)(F)C(F)(F)C(F)(F)C(F)(F)C(F)(F)C(F)(F)C(F)(F)C(F)(F)C(F)(F)C(F)(F)F [Perfluoroundecanoic acid]; conditions: in DMSO
Method: as §1

[6] = compound: O=C(O)C(F)(F)C(F)(F)C(F)(F)C(F)(F)C(F)(F)C(F)(F)C(F)(F)C(F)F [9-H-Perfluorononanoic acid]; conditions: 2200 nM; in DMSO
Method: as §1

Perfluorobutanoic acid = compound: O=C(O)C(F)(F)C(F)(F)C(F)(F)F [Perfluorobutanoic acid]; conditions: 2200 nM; in DMSO
Method: as §1

Perfluoropropanoic acid = compound: O=C(O)C(F)(F)C(F)(F)F [Perfluoropropanoic acid]; conditions: 2200 nM; in DMSO
Method: as §1

[7] = compound: O=C(O)C(F)(F)C(F)(F)OC(F)(F)F [Perfluoro-3-methoxypropanoic acid]; conditions: 2200 nM; in DMSO
Method: as §1

[8] = compound: O=C(O)C(F)(F)OC(F)(F)C(F)(F)OC(F)(F)C(=O)O [Perfluoro-3,6-dioxaoctane-1,8-dioic acid]; conditions: 2200 nM; in DMSO
Method: as §1

[9] = compound: O=C(O)C(F)(F)OC(F)(F)C(F)(F)OC(F)(F)C(F)(F)C(F)(F)C(F)(F)F [Perfluoro-3,6-dioxadecanoic acid]; conditions: 2200 nM; in DMSO
Method: as §1

[10] = compound: O=C(O)C=CC(F)(C(F)(F)F)C(F)(F)F [3-(Perfluoroisopropyl)-2-propenoic acid]; conditions: in DMSO
Method: as §1

[11] = compound: O=P(O)(O)CCC(F)(F)C(F)(F)C(F)(F)C(F)(F)C(F)(F)C(F)(F)C(F)(F)C(F)(F)F [((Perfluorooctyl)ethyl)phosphonic acid]; conditions: 2200 nM; in DMSO
Method: as §1

[12] = compound: O=S(=O)(Cl)C(F)(F)C(F)(F)C(F)(F)C(F)(F)C(F)(F)C(F)(F)C(F)(F)C(F)(F)F [Perfluoro-1-octanesulfonyl chloride]; conditions: 2200 nM; in DMSO
Method: as §1

[13] = compound: OCC(F)(F)C(F)(F)C(F)(F)C(F)(F)C(F)(F)C(F)(F)C(F)(F)C(F)(F)C(F)(F)C(F)(F)C(F)(F)F [11:1 Fluorotelomer alcohol]; conditions: in DMSO
Method: as §1

[14] = compound: OCCC(F)(F)C(F)(F)C(F)(F)C(F)(F)C(F)(F)C(F)(F)C(F)(F)C(F)(F)F [8:2 Fluorotelomer alcohol]; conditions: 2200 nM; in DMSO
Method: as §1

Test System	level (log10) [1]	level (log10) [2]	level (log10) ([3]; 740 nM)	level (log10) ([3]; 2200 nM)	level (log10) ([3]; 6700 nM)	level (log10) ([3]; 20000 nM)	level (log10) ([4]; 740 nM)	level (log10) ([4]; 2200 nM)	level (log10) ([4]; 6700 nM)	level (log10) ([4]; 20000 nM)	level (log10) [5]	level (log10) (Perfluorooctanamide)	level (log10) (Perfluoroundecanoic acid; 740 nM)	level (log10) (Perfluoroundecanoic acid; 2200 nM)	level (log10) [6]	level (log10) (Perfluorobutanoic acid)	level (log10) (Perfluoropropanoic acid)	level (log10) [7]	level (log10) [8]	level (log10) [9]	level (log10) ([10]; 2200 nM)	level (log10) ([10]; 6700 nM)	level (log10) ([10]; 20000 nM)	level (log10) ([10]; 60000 nM)	level (log10) [11]	level (log10) [12]	level (log10) ([13]; 370 nM)	level (log10) ([13]; 1100 nM)	level (log10) ([13]; 3300 nM)	level (log10) ([13]; 10000 nM)	level (log10) [14]
SAg:CD38	0.01 ± 0.081	-0.005 ± 0.013	0.0165 ± 0.015	0.0105 ± 0.0092	0.007 ± 0.03	-0.007 ± 0.042	-0.0035 ± 0.005	-0.016 ± 0.028	-0.0085 ± 0.029	-0.005 ± 0.024	-0.0025 ± 0.0092	0.012 ± 0.0057	0.0005 ± 0.005	-0.0145 ± 0.005	0.0135 ± 0.023	0.007 ± 0.0028	0.0725 ± 0.0078	-0.0065 ± 0.042	0.006 ± 0.042	0 ± 0.0099	-0.0015 ± 0.019	-0.0125 ± 0.026	0.001 ± 0.0071	-0.019 ± 0.0085	-0.004 ± 0.0071	-0.0065 ± 0.0021	0.0065 ± 0.15	-0.0115 ± 0.084	-0.014 ± 0.073	0.0035 ± 0.042	-0.003 ± 0.0071
CASM3C:LDLR	0.021 ± 0.0042	-0.059 ± 0.033	0.013 ± 0.014	0.0015 ± 0.0021	-0.016 ± 0.021	0.026 ± 0.024	0.0275 ± 0.021	-0.0255 ± 0.021	-0.002 ± 0.013	-0.014	-0.0125 ± 0.0078	0.0005 ± 0.015	-0.019 ± 0.024	0.0155 ± 0.039	0.0075 ± 0.026	0.006 ± 0.045	-0.0155 ± 0.016	0.0235 ± 0.056	0.039 ± 0.042	-0.003 ± 0.017	0.0145 ± 0.052	-0.006 ± 0.017	-0.0045 ± 0.00071	0.008 ± 0.017	0.031 ± 0.037	-0.014 ± 0.013	-0.0045 ± 0.00071	-0.0055 ± 0.0021	-0.0095 ± 0.0064	0 ± 0.035	-0.0075 ± 0.013
KF3CT:SRB	0.009 ± 0.018	0.0015 ± 0.0092	0.0065 ± 0.0021	0.002	0.0005 ± 0.005	0.005 ± 0.013	0.0005 ± 0.0064	0.0005 ± 0.0078	0.0015 ± 0.0064	0.005 ± 0.0057	-0.0075 ± 0.0035	0.0015 ± 0.013	0.003 ± 0.0057	0.0015 ± 0.005	0.002 ± 0.025	0.0105 ± 0.023	0.0055 ± 0.019	-0.0035 ± 0.0035	-0.0105 ± 0.00071	-0.0155 ± 0.0021	-0.001 ± 0.018	-0.005	-0.009 ± 0.0014	0.002 ± 0.013	-0.001 ± 0.0057	0.0105 ± 0.013	0.0015 ± 0.022	-0.01 ± 0.0057	-0.0285 ± 0.005	-0.014 ± 0.0057	0.0215 ± 0.019
LPS:SRB	0 ± 0.0057	0.002 ± 0.0014	0.015 ± 0.0085	0.0075 ± 0.00071	0.0125 ± 0.0064	0.019 ± 0.017	0.0095 ± 0.0092	0.003 ± 0.013	0.0035 ± 0.0064	0.003 ± 0.0042	-0.001 ± 0.0099	0.0075 ± 0.016	0.0135 ± 0.012	0.007	0.0045 ± 0.0035	0.0055 ± 0.018	-0.0085 ± 0.011	0 ± 0.011	-0.0085 ± 0.025	-0.0075 ± 0.0021	-0.0015 ± 0.0035	-0.0015 ± 0.018	-0.011 ± 0.016	-0.0115 ± 0.028	-0.006 ± 0.0071	0.0055 ± 0.0021	-0.0015 ± 0.012	-0.029 ± 0.0099	-0.0455 ± 0.0021	-0.036 ± 0.0014	-0.0075 ± 0.0035
